# Reference: the supplement of paper PMC12823440, “Inhibitors supercharge kinase turnover through native proteolytic circuits” (Nature, 2025)
# Chains of the proteins cited; added tags and fusions are not shown. Lines headed by an entry give the natural chain unless they say otherwise; changes in a name come on top.
# UniProt Q96KB5: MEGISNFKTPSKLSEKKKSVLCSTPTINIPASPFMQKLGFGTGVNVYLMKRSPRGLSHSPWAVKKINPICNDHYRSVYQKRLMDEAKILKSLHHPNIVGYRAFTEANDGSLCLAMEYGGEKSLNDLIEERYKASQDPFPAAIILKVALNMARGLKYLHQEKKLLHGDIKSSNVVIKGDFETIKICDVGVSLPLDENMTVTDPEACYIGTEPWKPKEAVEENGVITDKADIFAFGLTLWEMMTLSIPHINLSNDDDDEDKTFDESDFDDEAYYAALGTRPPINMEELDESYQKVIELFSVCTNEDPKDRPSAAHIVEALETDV
# UniProt P09619, whole entry: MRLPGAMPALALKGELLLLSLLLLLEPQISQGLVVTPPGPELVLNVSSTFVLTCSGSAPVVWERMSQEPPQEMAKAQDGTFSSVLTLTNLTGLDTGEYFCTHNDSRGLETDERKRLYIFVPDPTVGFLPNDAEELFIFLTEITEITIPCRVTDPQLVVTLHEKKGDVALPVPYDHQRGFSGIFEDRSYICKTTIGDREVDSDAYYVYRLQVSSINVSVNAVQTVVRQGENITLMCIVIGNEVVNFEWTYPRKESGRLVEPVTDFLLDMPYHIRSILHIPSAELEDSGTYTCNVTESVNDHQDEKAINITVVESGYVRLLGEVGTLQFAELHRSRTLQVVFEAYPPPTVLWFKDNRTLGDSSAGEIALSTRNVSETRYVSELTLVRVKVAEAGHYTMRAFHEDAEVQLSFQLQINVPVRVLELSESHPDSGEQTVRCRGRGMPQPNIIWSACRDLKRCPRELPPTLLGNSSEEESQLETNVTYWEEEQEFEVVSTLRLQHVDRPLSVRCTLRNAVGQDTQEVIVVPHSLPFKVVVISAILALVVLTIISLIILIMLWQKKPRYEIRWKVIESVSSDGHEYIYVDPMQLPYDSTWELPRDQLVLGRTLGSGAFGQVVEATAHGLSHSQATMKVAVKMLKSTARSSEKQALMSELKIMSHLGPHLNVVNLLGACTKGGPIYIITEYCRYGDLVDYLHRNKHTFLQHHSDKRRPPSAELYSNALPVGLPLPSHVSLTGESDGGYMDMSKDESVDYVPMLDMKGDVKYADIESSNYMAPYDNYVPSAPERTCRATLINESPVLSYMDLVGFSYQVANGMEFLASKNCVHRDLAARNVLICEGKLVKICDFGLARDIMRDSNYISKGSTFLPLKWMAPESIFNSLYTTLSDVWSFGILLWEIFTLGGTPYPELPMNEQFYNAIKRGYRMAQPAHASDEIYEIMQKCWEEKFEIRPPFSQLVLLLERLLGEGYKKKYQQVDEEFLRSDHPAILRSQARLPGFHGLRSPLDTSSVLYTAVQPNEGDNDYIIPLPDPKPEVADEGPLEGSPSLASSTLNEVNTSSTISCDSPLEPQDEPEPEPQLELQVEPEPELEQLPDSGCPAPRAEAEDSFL
# UniProt P14616: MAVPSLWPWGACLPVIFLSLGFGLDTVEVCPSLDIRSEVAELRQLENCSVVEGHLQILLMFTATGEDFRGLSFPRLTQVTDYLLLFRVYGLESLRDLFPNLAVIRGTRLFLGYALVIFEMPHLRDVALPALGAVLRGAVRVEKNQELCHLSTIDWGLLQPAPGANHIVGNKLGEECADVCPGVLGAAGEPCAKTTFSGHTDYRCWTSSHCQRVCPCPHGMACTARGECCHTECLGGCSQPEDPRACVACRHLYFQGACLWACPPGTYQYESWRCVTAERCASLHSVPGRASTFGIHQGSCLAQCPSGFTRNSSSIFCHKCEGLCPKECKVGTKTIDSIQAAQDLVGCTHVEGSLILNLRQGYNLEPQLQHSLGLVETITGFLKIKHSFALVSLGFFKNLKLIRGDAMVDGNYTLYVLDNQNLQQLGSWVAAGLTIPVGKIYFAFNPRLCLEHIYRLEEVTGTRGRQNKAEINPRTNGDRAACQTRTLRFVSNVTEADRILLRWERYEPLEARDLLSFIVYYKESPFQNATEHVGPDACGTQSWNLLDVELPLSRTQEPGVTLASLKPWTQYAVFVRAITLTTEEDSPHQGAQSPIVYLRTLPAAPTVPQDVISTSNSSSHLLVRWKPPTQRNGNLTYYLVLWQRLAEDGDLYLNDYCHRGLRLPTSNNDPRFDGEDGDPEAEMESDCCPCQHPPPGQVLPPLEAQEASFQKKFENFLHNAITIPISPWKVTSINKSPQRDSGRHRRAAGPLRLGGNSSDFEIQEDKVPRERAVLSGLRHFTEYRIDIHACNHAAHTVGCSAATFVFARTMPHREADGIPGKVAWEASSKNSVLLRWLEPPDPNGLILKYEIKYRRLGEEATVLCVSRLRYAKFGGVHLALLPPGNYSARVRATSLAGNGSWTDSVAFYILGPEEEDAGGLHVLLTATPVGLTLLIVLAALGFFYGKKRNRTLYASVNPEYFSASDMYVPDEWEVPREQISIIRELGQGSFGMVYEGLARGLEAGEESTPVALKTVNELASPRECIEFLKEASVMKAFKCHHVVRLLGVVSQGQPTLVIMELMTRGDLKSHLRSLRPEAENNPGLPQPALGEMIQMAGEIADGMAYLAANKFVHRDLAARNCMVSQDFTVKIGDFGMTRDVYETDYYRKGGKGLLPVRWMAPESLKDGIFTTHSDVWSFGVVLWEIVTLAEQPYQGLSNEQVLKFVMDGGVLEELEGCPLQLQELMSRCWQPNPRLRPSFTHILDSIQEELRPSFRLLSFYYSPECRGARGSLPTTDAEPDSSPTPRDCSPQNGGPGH
# UniProt O96017, whole entry: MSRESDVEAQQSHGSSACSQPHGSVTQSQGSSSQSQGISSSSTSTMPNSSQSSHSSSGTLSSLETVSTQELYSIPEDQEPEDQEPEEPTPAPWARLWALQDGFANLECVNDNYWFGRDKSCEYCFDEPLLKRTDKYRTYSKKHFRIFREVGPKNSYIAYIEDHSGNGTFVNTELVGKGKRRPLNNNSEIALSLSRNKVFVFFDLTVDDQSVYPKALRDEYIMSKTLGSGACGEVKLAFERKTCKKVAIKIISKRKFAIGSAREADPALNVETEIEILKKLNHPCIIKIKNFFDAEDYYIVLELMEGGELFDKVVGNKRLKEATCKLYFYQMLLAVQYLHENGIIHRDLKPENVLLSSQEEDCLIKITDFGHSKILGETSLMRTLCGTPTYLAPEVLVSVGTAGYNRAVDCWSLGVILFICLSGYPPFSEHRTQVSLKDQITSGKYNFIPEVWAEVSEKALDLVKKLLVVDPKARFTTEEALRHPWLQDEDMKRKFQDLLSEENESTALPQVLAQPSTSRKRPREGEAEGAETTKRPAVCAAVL
# UniProt P49137, whole entry, looked up: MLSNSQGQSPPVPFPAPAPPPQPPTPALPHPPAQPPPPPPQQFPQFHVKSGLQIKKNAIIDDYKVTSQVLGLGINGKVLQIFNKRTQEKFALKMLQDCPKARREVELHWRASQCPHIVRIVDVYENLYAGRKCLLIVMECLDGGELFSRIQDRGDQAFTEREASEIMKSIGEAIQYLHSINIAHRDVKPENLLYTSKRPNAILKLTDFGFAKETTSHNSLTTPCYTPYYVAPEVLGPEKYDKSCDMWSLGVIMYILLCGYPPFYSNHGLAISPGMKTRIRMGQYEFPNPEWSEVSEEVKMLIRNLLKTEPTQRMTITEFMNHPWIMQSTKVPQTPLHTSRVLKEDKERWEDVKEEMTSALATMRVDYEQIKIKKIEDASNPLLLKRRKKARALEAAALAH
# UniProt Q9NYA1, whole entry: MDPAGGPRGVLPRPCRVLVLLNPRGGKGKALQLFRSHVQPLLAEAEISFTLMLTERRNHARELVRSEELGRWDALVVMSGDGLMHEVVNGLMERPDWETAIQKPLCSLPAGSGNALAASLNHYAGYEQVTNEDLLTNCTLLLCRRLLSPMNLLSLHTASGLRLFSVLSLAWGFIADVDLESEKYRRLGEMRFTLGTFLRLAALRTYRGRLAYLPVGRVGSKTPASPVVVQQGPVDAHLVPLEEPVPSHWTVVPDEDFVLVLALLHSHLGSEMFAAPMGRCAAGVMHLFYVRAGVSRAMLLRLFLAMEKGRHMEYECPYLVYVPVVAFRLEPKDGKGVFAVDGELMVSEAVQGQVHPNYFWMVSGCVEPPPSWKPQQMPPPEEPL
# UniProt Q9Y463, whole entry, looked up: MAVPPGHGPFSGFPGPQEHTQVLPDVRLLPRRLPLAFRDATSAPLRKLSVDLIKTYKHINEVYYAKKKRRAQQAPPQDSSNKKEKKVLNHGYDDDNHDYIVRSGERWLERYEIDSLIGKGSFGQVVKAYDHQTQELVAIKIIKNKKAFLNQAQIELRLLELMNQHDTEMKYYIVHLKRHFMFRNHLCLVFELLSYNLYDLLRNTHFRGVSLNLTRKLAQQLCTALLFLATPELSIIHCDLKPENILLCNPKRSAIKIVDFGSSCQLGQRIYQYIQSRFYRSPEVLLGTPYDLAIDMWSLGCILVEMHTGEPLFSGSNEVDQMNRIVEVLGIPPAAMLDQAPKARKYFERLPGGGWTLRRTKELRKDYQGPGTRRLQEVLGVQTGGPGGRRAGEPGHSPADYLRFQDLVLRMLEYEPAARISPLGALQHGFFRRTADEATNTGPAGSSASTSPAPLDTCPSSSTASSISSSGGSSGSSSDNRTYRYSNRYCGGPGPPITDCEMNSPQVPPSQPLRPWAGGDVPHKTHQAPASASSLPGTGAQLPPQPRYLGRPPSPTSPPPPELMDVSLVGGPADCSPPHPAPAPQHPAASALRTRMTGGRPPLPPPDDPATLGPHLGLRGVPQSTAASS
# UniProt Q13131: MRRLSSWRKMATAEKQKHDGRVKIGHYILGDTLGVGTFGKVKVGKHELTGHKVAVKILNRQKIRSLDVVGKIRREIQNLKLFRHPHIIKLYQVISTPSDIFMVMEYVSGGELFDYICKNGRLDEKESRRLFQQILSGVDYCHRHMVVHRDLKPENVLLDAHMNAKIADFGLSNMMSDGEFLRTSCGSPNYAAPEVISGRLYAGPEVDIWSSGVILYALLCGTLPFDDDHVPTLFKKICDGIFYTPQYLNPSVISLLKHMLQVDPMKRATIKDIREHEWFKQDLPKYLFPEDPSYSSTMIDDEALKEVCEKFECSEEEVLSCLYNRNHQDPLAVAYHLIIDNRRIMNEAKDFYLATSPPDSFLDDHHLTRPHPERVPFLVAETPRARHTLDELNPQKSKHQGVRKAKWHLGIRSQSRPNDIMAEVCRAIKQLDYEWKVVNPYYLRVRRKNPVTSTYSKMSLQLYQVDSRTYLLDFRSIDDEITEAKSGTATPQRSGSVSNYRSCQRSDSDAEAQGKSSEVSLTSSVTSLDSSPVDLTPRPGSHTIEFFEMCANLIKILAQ
# UniProt P06241, whole entry, looked up: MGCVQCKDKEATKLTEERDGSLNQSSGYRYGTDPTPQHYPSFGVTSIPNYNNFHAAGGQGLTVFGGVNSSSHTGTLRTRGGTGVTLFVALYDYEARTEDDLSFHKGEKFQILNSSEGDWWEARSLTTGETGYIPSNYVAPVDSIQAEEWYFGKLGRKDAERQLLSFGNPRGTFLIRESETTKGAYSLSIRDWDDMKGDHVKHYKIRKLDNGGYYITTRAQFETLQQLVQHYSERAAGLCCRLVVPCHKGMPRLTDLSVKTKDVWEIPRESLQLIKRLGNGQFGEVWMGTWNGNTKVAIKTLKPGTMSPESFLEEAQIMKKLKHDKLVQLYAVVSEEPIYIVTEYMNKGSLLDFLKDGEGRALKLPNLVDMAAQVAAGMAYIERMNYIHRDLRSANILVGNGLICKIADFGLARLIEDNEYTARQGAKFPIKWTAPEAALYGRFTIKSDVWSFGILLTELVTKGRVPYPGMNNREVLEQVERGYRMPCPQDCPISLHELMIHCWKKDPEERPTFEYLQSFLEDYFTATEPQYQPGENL
# UniProt O15530: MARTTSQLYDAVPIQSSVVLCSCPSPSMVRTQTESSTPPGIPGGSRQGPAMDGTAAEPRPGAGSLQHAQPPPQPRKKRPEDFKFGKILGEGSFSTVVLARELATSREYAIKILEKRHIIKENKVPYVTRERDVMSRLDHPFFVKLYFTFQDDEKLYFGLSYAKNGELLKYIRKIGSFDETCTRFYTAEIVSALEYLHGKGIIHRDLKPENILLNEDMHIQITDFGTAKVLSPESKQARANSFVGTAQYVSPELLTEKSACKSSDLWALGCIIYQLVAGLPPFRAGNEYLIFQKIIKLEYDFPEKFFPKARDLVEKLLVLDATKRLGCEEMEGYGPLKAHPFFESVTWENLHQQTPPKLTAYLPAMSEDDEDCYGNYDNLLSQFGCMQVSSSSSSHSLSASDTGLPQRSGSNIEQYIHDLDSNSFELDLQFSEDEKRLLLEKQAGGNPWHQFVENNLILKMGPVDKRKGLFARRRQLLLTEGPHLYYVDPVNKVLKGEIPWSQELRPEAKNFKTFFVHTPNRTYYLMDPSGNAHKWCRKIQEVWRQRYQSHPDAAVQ
# Some of the results follow. The calls rarely recur for the same compound in another form.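 In K562 cells expressing nanoluciferase-fused kinases, luminescence was recorded at 4 h intervals between 2 and 18 h, normalized as percent of control with DMSO at 100% and a positive control at 0%. A significant (2 sigma) signal drop marks a time point as decreased. The authors' rule for a hit is not shown and takes in more than the number of time points.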
# Tests used:
# Assay in all cases: number of time points (of 5) at which kinase-Nluc abundance scored as decreased, DMSO-normalised (count); higher = more persistent destabilization
# [1] = compound: COc1ccc(-c2cc3nccn3c(Nc3ncccc3C(N)=O)n2)cc1OC [BAY 61-3606 (dihydrochloride)]; details: 2.5 µM; K562; 2-18 h
# [2] = compound: COc1ccc(CNC(=O)Nc2ncc([N+](=O)[O-])s2)cc1; details: 2.5 µM; K562; 2-18 h
# [3] = compound: COc1nccc(-c2c(-c3ccc(F)cc3)ncn2C2CCNCC2)n1; details: 10 µM; K562; 2-18 h
# HDACs/mTOR Inhibitor 1 = compound: C[C@@H]1CN(C(=O)Nc2ccc(-c3nc(N4CCOCC4)c4cnn(CCCCCCC(=O)NO)c4n3)cc2)CCO1 [HDACs/mTOR Inhibitor 1]; details: 10 µM; K562; 2-18 h
# Quercitrin = compound: C[C@@H]1O[C@@H](Oc2c(-c3ccc(O)c(O)c3)oc3cc(O)cc(O)c3c2=O)[C@H](O)[C@H](O)[C@H]1O [Quercitrin]; details: 10 µM; K562; 2-18 h
# [4] = compound: C[C@@]1(C(=O)Nc2ccc(F)nc2)CCCN1c1nc(Nc2cc(C3CC3)n[nH]2)c2cccn2n1; details: 10 µM; K562; 2-18 h
# Fenebrutinib = compound: C[C@H]1CN(C2COC2)CCN1c1ccc(Nc2cc(-c3ccnc(N4CCn5c(cc6c5CC(C)(C)C6)C4=O)c3CO)cn(C)c2=O)nc1 [Fenebrutinib]; details: 10 µM; K562; 2-18 h
# [5] = compound: COc1cccc(C2=NN(c3ccc(S(N)(=O)=O)cc3)C(c3ccc(Br)cc3)C2)c1; details: 10 µM; K562; 2-18 h
# [6] = compound: C[C@@H]1C[C@H](N)C[C@H](c2ccncc2NC(=O)c2ccc(F)c(-c3c(F)cccc3F)n2)C1 [PIM-447 (dihydrochloride)]; details: 10 µM; K562; 2-18 h
# (-)-Zuonin A = compound: C[C@@H]1[C@H](C)[C@H](c2ccc3c(c2)OCO3)O[C@H]1c1ccc2c(c1)OCO2 [(-)-Zuonin A]; details: 10 µM; K562; 2-18 h
Target,number of time points [1],number of time points [2],number of time points [3],number of time points (HDACs/mTOR Inhibitor 1),number of time points (Quercitrin),number of time points [4],number of time points (Fenebrutinib),number of time points [5],number of time points [6],number of time points ((-)-Zuonin A)
YES1 (UniProt P07947),0,0,0,0,0,0,0,,,
CAMK2G (UniProt Q13555),0,0,0,0,0,0,0,,,
PBK (UniProt Q96KB5),0,0,0,0,0,0,0,,,
ROR2 (UniProt Q01974),0,0,0,0,0,0,0,,,
PDGFRB (UniProt P09619),0,0,0,0,0,0,0,,,
CDK6 (UniProt Q00534),0,0,0,1,0,0,0,,,
BMX (UniProt P51813),0,0,0,0,0,0,,,,
CDK10 (UniProt Q15131),0,0,0,0,0,0,0,,,
INSRR (UniProt P14616),0,0,0,0,0,0,0,,,
CHEK2 (UniProt O96017),0,0,0,0,0,0,0,,,
PRKCA (UniProt P17252),0,0,0,0,0,0,0,,,
MAP2K2 (UniProt P36507),0,0,0,1,0,0,0,,,
NTRK2 (UniProt Q16620),0,0,0,0,0,0,0,,,
ARAF (UniProt P10398),0,0,0,0,0,0,0,,,
RAF1 (UniProt P04049),0,0,0,0,0,0,0,,,
MAPKAPK2 (UniProt P49137),0,0,0,0,0,0,0,,,
CSNK1A1 (UniProt P48729),0,0,0,0,0,0,0,,,
BRAF_V600E,0,0,0,0,0,,0,0,4,0
PIK4CA (UniProt P42356),0,0,0,0,0,0,0,,,
LYN (UniProt P07948),0,0,0,0,0,0,0,,,
CDK2 (UniProt P24941),0,0,0,0,0,0,0,,,
SPHK1 (UniProt Q9NYA1),0,0,0,3,0,0,0,,,
LIMK2 (UniProt P53671),0,0,0,1,0,0,0,,,

Target,number of time points [1],number of time points [2],number of time points [3],number of time points (HDACs/mTOR Inhibitor 1),number of time points (Quercitrin),number of time points [4],number of time points (Fenebrutinib),number of time points [5],number of time points [6],number of time points ((-)-Zuonin A)
ULK3 (UniProt Q6PHR2),0,0,0,0,0,0,0,,,
ERBB3 (UniProt P21860),0,0,0,0,0,0,0,,,
FGR (UniProt P09769),0,0,0,1,0,0,0,,,
DYRK1B (UniProt Q9Y463),0,0,0,0,0,0,0,,,
LIMK1 (UniProt P53667),0,0,0,0,0,4,0,,,
PRKAA1 (UniProt Q13131),0,0,0,0,0,0,0,,,
DYRK2 (UniProt Q92630),0,0,0,0,0,0,0,,,
HER2 (UniProt P04626),0,0,0,0,0,0,0,,,
AKT1 (UniProt P31749),0,0,0,0,0,0,0,,,
RIPK2 (UniProt O43353),0,0,0,0,0,0,0,,,
CAMK2A (UniProt Q9UQM7),0,0,0,0,0,0,0,,,
FYN (UniProt P06241),0,0,0,0,0,0,0,,,
TEC (UniProt P42680),0,0,0,0,0,0,0,,,
STK24 (UniProt Q9Y6E0),0,0,0,0,0,0,0,,,
PDPK1 (UniProt O15530),0,0,0,0,0,0,0,,,
RAF1_S257L (clone: RAF1_mut) (UniProt P04049),0,0,0,0,0,0,0,,,
JAK1 (UniProt P23458),0,0,0,0,0,0,0,,,
PIK4CB (UniProt Q9UBF8),0,0,0,0,0,0,0,,,
MAPK4 (UniProt P31152),0,0,0,0,0,0,0,,,
LMTK2 (UniProt Q8IWU2),0,0,0,0,0,0,0,,,
SYK (UniProt P43405),0,0,0,0,0,0,0,,,
ABL1 (UniProt P00519),0,0,0,0,0,4,0,,,

# Copied from the list:
# number of time points [1] with LIMK2 (UniProt P53671) reads 0
# number of time points (Quercitrin) with PDGFRB (UniProt P09619) reads 0
